# Not every detail of the peptide structures is certain; ends, links or a residue may be inferred. Where no end group is shown, it is not given here.
# Experiments:
# Assay type in all cases: cell-based
# [1] = tested on: human TNFα in activated M1-macrophages (THP1-derived, LPS-activated); assay: In vitro anti-inflammatory activity (ELISA), TNFα as marker; conditions: 100 ng/mL; for anti-inflammatory activity (human TNFα detected by ELISA) after storage: compared with T0
# Method: The anti-inflammatory response of each free peptide and each peptide-polymer formulation was determined using TNFα as a marker. The anti-inflammatory bioactivity was assessed using enzyme-linked immunosorbent assay (ELISA) for quantitative detection of human TNFα in activated M1-macrophages. THP1 human monocytes were differentiated into macrophages (M0), which were then activated (overnight) with lipopolysaccharide (LPS) into M1-macrophages. LPS prompts the abundant production of many pro-inflammatory cytokines from macrophages, including TNF-α, which actively contributes to the inflammatory response. At the T0 and T4 (after 4 weeks storage at RT or 4° C.) time points, each JEL peptide and each JEL-polymer formulation was incubated in previously LPS-activated M1-macrophages for 24 h at 37° C. After incubation, supernatants were collected, centrifuged and stored at −80° C. in readiness for the enzyme-linked immunosorbent assay (ELISA). Each supernatant sample was defrosted and the ELISA assay undertaken according to the Invitrogen protocol. FIGS. 1-4 show the concentrations of human TNFα detected by ELISA after incubation with each free and polymer loaded peptide at a concentration of 100 ng/mL.
# [2] = tested on: HLA (human leucocyte antigen) mismatched GvHD model; assay: Skimune skin explant assay, HLA mismatched GvHD model; conditions: LNP formulation of the compound, added throughout the mixed lymphocyte reaction and spiked into the skin explant
# [3] = tested on: AD phenotype of skin biopsies (white space; Filaggrin, Involucrin, TSLP); assay: Atopic Dermatitis (AD) model in skin biopsies; conditions: for phenotype: donor ALC1373, 0.1 and 1.0 μg/ml, appeared an improvement above Clobetasol; for phenotype ("white space") analysis: donors ALC1366 and ALC1365, 0.1, 1.0 and 2.5 μg/ml, not as apparent as Clobetasol
# Method: The AD phenotype was assessed by measuring the intensity of the “white space” within the biopsies—this was increased from 20% in the media alone control to 80% on AD induction and reduced with Clobetasol (a topical corticosteroid) to 40%. All concentrations of the compound (JEL0305, JEL2603, JEL1103 or JEL0802) reduced the white space by between 50 and 60% as a similar trend to Clobetasol. Three further donors (ALC1373, ALC1366 and ALC1365) were used to develop atopic dermatitis after treatment with activated PBMC and a cytokine cocktail model and assessed phenotypically as well as by biomarker (Filaggrin, Involucrin and TSLP) by immunohistochemistry. For 2 donors (ALC1366 and ALC1365) Filaggrin and Involucrin were reduced compared non-AD induced skin biopsies in media alone. This is the expected response for AD induction. In the presence of the control drug Clobetasol the expression of Filaggrin and Involucrin was increased due to the drug reversing the AD phenotype. […] But this was not as apparent as Clobetasol more than likely due to the lipid formulation causing an upregulation of cytokines. […] Filaggrin results were inconclusive.
Sequence,"anti-inflammatory activity (human TNFα detected by ELISA) ([1]; T0 (baseline), 24 h in LPS-activated M1-macrophages)",anti-inflammatory activity (human TNFα detected by ELISA) after storage ([1]; after 4 weeks storage at 4° C.),anti-inflammatory activity (human TNFα detected by ELISA) after storage ([1]; after 4 weeks storage at room temperature (RT)),Graft versus Host reaction grade [2],inhibition of the Graft versus Host response [2],phenotype [3],"phenotype (""white space"") analysis [3]"
"SRALLIFQKI [JEL0802, Ser-Arg-Ala-Leu-Leu-Ile-Phe-Gln-Lys-Ile]",shows activity,shows activity,shows activity,Grade III,no inhibition,some improvement of the phenotype,improved and reversal of damage
"VSRATRIFKLSQLRGQCA [JEL0305, Val-Ser-Arg-Ala-Thr-Arg-Ile-Phe-Lys-Leu-Ser-Gln-Leu-Arg-Gly-Gln-Cys-Ala]",–,–,–,Grade III,no inhibition,some improvement of the phenotype,improved and reversal of damage

# — patent US20260184742A1, “PEPTIDES” (CAROCELL BIO LIMITED, priority 2022, published 2026)
